Laboratory results taken from article PMC4488328.

target: T1, Salvador (Sav), Myc-tagged (Drosophila) (UniProt Q9VCR6); assay: co-IP; mapping with fragments of Herc4 or Sav in S2 cells (Fig 7A, 7B); which partner was precipitated is not told
T1 sequence: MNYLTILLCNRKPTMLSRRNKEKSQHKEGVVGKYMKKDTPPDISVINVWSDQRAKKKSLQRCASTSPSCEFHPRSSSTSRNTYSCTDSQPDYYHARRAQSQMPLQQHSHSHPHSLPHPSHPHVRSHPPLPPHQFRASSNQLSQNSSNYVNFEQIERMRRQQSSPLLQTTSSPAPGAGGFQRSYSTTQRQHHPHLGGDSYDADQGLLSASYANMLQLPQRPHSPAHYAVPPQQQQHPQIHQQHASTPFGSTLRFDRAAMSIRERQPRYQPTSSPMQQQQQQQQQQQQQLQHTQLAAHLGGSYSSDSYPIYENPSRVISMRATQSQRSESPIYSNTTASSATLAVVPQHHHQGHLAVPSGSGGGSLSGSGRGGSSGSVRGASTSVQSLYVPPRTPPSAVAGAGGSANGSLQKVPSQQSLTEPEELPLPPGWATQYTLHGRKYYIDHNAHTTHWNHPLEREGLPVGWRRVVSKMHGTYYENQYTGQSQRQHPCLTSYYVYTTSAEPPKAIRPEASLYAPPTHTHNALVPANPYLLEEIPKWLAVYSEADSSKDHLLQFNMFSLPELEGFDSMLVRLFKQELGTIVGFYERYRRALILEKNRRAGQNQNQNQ

binding	Substance
binds	Herc4 ∆HECT (Herc4 lacking the entire HECT domain) (Drosophila melanogaster) (domain or fragment)
binds	Herc4 ∆RCC1-3 (Herc4 lacking RCC1-like repeats 1–3) (Drosophila melanogaster) (domain or fragment)
no binding	Herc4 ∆RCC1-7 (Herc4 lacking the whole RLD domain) (Drosophila melanogaster) (domain or fragment)

target: T1, Salvador (Sav), Myc-tagged (Drosophila); assay: co-IP; within the Sav ubiquitylation assay: S2 cells transfected with Myc-Sav (or Sav∆N, Sav∆C), HA-ubiquitin and Herc4 and/or Hpo constructs; proteasome inhibitors 4 h unless stated otherwise (5 mM NEM in Fig 8A); anti-Myc immunoprecipitation with Protein A Sepharose; western blot

binding	Substance
binds	Hpo∆C2 (longer C-terminal truncation of Hpo lacking the SARAH domain) (Drosophila) (domain or fragment)
binds	Hpo∆C3 (shorter C-terminal truncation of Hpo lacking the SARAH domain) (Drosophila) (domain or fragment)
binds	Hpo∆N (Hpo with the kinase domain deleted) (Drosophila) (domain or fragment)

Results are given in words; binding and its absence hold for the method and conditions named. Binding seen in cells or lysates may run through a third protein. A result given as binding can be weak or reduced; the word gives no strength. Tags and fused reporters may be left off the sequences shown.
